# Test results published in the supplement of paper PMC4604168 (melanoma cell lines).
# The list shows a part of the results. Many values rest on one well or one pass, so single values are uncertain.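 Cells were imaged in 1,536-well plates, and nuclei stained with an antibody against cleaved PARP were counted against all DNA-stained nuclei to give the apoptosis fraction. Screening doses were chosen to leave most cells alive, and resting and induced cleaved-PARP levels differ strongly between cell lines.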
# System: LOXIMVI
# Assay: cleaved PARP positive nuclei fraction relative to DMSO control; melanoma cells; higher = more apoptosis
# Conditions: library dose: low library concentration; 72 h
row,Compound,cleaved PARP positive nuclei fraction
1,"Cc1cn(-c2cc(NC(=O)c3ccc(C)c(Nc4nccc(-c5cccnc5)n4)c3)cc(C(F)(F)F)c2)cn1 [nilotinib] + CNC(=O)c1cc(Oc2ccc(NC(=O)Nc3ccc(Cl)c(C(F)(F)F)c3)cc2)ccn1 [sorafenib] (first compound 0.2 µM, partner dose 0.4 µM)",160%
2,"O=c1[nH]nc(Sc2ncc([N+](=O)[O-])s2)n1-c1ccc2c(c1)OCCO2 + Nc1nc(F)nc2c1ncn2[C@@H]1O[C@H](CO)[C@@H](O)[C@@H]1O [fludarabine] (first compound 0.2 µM, partner dose 0.2 µM)",87.7%
3,"Cc1cn(-c2cc(NC(=O)c3ccc(C)c(Nc4nccc(-c5cccnc5)n4)c3)cc(C(F)(F)F)c2)cn1 [nilotinib] + CCCS(=O)(=O)Nc1ccc(F)c(C(=O)c2c[nH]c3ncc(Cl)cc23)c1F [PLX4720] (first compound 0.2 µM, partner dose 0.08 µM)",122%
4,"O=C(Nc1cc(C(F)(F)F)cc(C(F)(F)F)c1)c1cc(Cl)ccc1O + CC(=O)O[C@@]12CO[C@@H]1C[C@H](O)[C@@]1(C)C(=O)[C@H](O)C3=C(C)[C@@H](OC(=O)[C@H](O)[C@@H](NC(=O)OC(C)(C)C)c4ccccc4)C[C@@](O)([C@@H](OC(=O)c4ccccc4)[C@H]21)C3(C)C [Docetaxel] (first compound 0.016 µM, partner dose 0.0001 µM)",319%
5,"O=C(/C=C/c1cccnc1)NCCCCC1CCN(C(=O)c2ccccc2)CC1 + Nc1nc(F)nc2c1ncn2[C@@H]1O[C@H](CO)[C@@H](O)[C@@H]1O [fludarabine] (first compound 0.01 µM, partner dose 0.2 µM)",92.7%
